One experiment deals with T1, Myc-tagged MRF4 (mouse) (UniProt P15375).
T1 sequence: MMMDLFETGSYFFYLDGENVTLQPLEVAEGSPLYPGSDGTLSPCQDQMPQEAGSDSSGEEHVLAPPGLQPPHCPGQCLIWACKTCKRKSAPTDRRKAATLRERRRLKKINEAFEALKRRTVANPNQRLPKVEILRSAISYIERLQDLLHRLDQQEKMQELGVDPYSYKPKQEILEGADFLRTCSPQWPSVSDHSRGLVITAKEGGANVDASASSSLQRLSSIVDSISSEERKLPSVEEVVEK
Put plainly: co-IP; HEK-293 cells co-transfected with MEF2C-Flag and Myc-MRF4 or Myc-myogenin, plus a plasmid coding for E47; lysates immunoprecipitated with anti-Myc; Immunocruz IP/WB Optima System.

The chains behind the UniProt entries cited, without tags or fusion partners.
UniProt Q06413: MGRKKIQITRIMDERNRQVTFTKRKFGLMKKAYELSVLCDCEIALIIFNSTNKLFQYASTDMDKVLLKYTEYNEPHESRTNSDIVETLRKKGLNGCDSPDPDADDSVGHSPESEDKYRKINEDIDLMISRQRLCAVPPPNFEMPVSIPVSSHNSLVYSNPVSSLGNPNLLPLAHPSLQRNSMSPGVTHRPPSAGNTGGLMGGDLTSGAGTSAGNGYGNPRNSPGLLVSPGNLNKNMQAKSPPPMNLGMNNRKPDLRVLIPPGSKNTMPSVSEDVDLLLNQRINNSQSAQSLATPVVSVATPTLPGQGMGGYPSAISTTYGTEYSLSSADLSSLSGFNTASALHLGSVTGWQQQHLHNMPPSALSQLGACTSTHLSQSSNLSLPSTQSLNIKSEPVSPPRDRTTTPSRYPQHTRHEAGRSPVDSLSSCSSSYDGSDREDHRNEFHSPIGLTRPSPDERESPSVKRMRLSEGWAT

Experiment [1] deals with T2, Myc-tagged myogenin (rat) (UniProt P20428).
T2 sequence: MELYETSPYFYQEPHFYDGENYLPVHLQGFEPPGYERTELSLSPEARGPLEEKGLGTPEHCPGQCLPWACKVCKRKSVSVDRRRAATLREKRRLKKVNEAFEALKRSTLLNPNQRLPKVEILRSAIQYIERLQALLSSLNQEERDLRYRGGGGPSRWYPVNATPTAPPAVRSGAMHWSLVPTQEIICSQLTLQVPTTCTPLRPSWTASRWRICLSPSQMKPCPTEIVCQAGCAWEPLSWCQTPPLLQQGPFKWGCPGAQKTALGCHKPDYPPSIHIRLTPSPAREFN
Described as above.

These are yes or no findings as the source states them, for the method shown. In cells and extracts the contact can be indirect. Some binding calls cover weakened binding; strength is not graded here. Sequences can lack the tags named with a protein.

Consider “Flag-tagged MEF2C (from UniProt Q06413 1-473)”, for which the binding result (with Myc-tagged MRF4 (mouse); in experiment [1]) was “binds” in each case.
